Data reported in PubChem BioAssay AID493014 (National Center for Advancing Translational Sciences (NCATS), 2011).
This is one part of the list. Shown are side measurements of this screen, not its main read-out; they come without a call. Most of these compounds were active or inconclusive in the main read-out, so they are no random draw. The note in brackets gives the kind of curve behind each potency; many fits are weak.

Assay: qHTS Assay to Find Inhibitors of Chronic Active B-Cell Receptor Signaling
Conditions: ABC-DLBCL IkBa-CBG/CBR reporter, luminescence ratio (green luciferase fused to IkBa over red control in TMD8 lymphoma cells), 4 h
Outline: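 Compounds up to 46 uM were incubated four hours with TMD8 cells whose green CBG68 luciferase is fused to IkappaBalpha; red CBR luminescence normalised the signal, and concentration-effect curves were fitted to fusion, red and ratio data.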

[1] = measured here: CBR red luminescence, cell number
[2] = measured here: IkBa-CBG green luminescence

Compound | AC50 [1] | AC50 [2]
CNC(=O)NC(=O)C(C)OC(=O)CCCSc1nc2ccccc2s1 (centres undefined) | 7.31 µM [falling, partial curve] | –
Cc1ccc(-c2cc(C(=O)Nc3ccc(S(=O)(=O)Nc4nccs4)cc3)c3ccccc3n2)c(C)c1 | – | 13 µM [rising, partial curve, poor fit]
NC(=O)c1cccnc1Sc1ccc(Cl)cc1 | 0.13 µM [rising, full curve, poor fit] | –
CCOCCCNC(=O)C(NC(=O)CNC(C)=O)c1ccc(C)cc1 (centres undefined) | 7.31 µM [rising, partial curve, poor fit] | –
CN(C)c1ccc(-c2noc(-c3ccccc3O)n2)cc1 | 0.562 µM [falling, full curve, poor fit] | –
C=CCSc1nc(C)c(CCCC)c(=O)[nH]1 | 10 µM [rising, partial curve] | –
O=C(CSc1nncc2ccccc12)N1CCOCC1 | 35.5 µM [falling, partial curve, poor fit] | –
COC(=O)C1=C(C)N(Cc2ccc(C)cc2)C(=O)/C1=C\c1cc(OC)c(OC)c(OC)c1 | 18.4 µM [falling, single point] | –
CC1CCN(c2ccc(C(=O)NCc3ccco3)cc2[N+](=O)[O-])CC1 | 1.16 µM [rising, full curve, poor fit] | –
Cc1cccc(NC(=O)CSc2nc(C)c(Cc3ccccc3)c(=O)[nH]2)c1C | 7.94 µM [rising, partial curve, poor fit] | –
CCNS(=O)(=O)c1cc(OC)c(Cl)cc1OC | 13 µM [rising, partial curve, poor fit] | –
COc1ccc(C(=O)OCCNC(=O)c2ccncc2)cc1OC | 18.4 µM [rising, partial curve, poor fit] | –
NC(N)=N/N=C/c1ccc(OCc2ccccc2)cc1 | – | 14.1 µM [falling, partial curve, poor fit]
CC(=O)c1c(C)[nH]c(C(=O)Nc2ccc(C)cn2)c1C | 0.731 µM [rising, full curve, poor fit] | –
O=C(CCc1nc2ccccc2s1)N1CCN(c2ccccc2)CC1 | 12.6 µM [rising, partial curve, poor fit] | –
CCN1C(N(C)CCc2cccs2)=N[C@@H](c2ccccc2)C(C(=O)OC)=C1C | 12.6 µM [falling, partial curve] | –

Compound | AC50 [1] | AC50 [2]
COc1cc(OC)c(C2=NOC(C(=O)Nc3cc(C)nn3-c3ccccc3)C2)cc1Cl (centres undefined) | 0.184 µM [rising, full curve, poor fit] | –
COC(=O)c1ccc(COC(=O)CNC(=O)c2ccc(OC)cc2)cc1 | 16.4 µM [falling, single point] | –
CCN(CC)C(=O)c1cnn(-c2ccccc2)c1NC(=O)c1cccc(F)c1 | 25.9 µM [rising, single point] | –
COc1ccc(N2CCN(S(=O)(=O)c3ccc(Cl)s3)CC2)cc1 | 35.5 µM [rising, single point] | –
COc1c(Cl)cc(-c2noc(C)c2C(=O)NC(C)C)cc1Cl | 9.2 µM [rising, partial curve, poor fit] | –
Cc1cc(N2CCOCC2)nc(-c2ccccc2O)n1 | 3.66 µM [falling, full curve] | –
COc1ccc(C(CCNC(C)c2ccccc2)c2ccc(F)cc2)cc1 (centres undefined) | 14.6 µM [falling, single point] | –
COc1ccccc1N=CC=C1OC(C)(C)C(C)(C)O1 | 35.5 µM [falling, single point] | 17.8 µM [falling, partial curve, poor fit]
CCOC(=O)N1CCC(NCCNC(=O)c2ccco2)CC1 | 2 µM [rising, partial curve, poor fit] | –
COc1ccc(-c2c(C)oc3cc(O)cc(O)c3c2=O)cc1OC | 29.1 µM [rising, single point] | –
CCSC1=C(C#N)C(c2ccccc2Cl)C(C(=O)c2cccs2)C(O)(C(F)(F)F)N1 (centres undefined) | 16.4 µM [falling, partial curve] | 20.6 µM [rising, partial curve, poor fit]
CC(=O)c1cccc(NC(=O)COC(=O)c2n[nH]c3ccccc23)c1 | 35.5 µM [falling, single point] | –
COc1ccc(/C=C/C(=O)Nc2cccnc2)cc1OC | 10 µM [falling, partial curve] | –
Cc1ccc(OCc2cc(C(=O)NCc3cn4ccccc4n3)no2)cc1C | 25.1 µM [falling, single point] | –
Cc1ccc2c(c1Br)/C(=N/N1C(=O)c3ccccc3C1=O)C(=O)N2 | 35.5 µM [falling, single point] | –
O=C(Nc1ccc(-c2cscn2)cc1)C1CCCN(Cc2ccccc2)C1 (centres undefined) | 35.5 µM [falling, single point] | –

Quoted at random: two records from the list
Compound | AC50 [1] | AC50 [2]
Cc1ccc(OCc2cc(C(=O)NCc3cn4ccccc4n3)no2)cc1C | 25.1 µM [falling, single point] | –
COc1ccc(/C=C/C(=O)Nc2cccnc2)cc1OC | 10 µM [falling, partial curve] | –
